The assay addresses ZFP804A (rodent homologue of ZNF804A) (rat (endogenous in primary cortical neurons)). Put plainly: co-IP.

These are yes or no findings as the source states them, for the method shown. In cells and extracts the contact can be indirect. Binding can be weak; no strength is given.

B1: NT5C2 (rodent, endogenous in cortical neurons) (protein, UniProt D3ZMY7 1-560)
chain: MMTSWSDRLQNAADVPANMDKHALKKYRREAYHRVFVNRSLAMEKIKCFGFDMDYTLAVYKSPEYESLGFELTVERLVSIGYPQELLNFAYDSTFPTRGLVFDTLYGNLLKVDAYGNLLVCAHGFNFIRGPETREQYPNKFIQRDDTERFYILNTLFNLPETYLLACLVDFFTNCPRYTSCDTGFKDGDLFMSYRSMFQDVRDAVDWVHYKGSLKEKTVENLEKYVVKDGKLPLLLSRMKEVGKVFLATNSDYKYTDKIMTYLFDFPHGPKPGSSHRPWQSYFDLILVDARKPLFFGEGTVLRQVDTKTGKLKIGTYTGPLQHGIVYSGGSSDTICDLLGAKGKDILYIGDHIFGDILKSKKRQGWRTFLVIPELAQELHVWTDKSSLFEELQSLDIFLAELYKHLDSSSNERPDISSIQRRIKKVTHDMDMCYGMMGSLFRSGSRQTLFASQVMRYADLYAASFINLLYYPFSYLFRAAHVLMPHESTVEHTHVDINEMESPLATRNRTSVDFKDTDYKRHQLTRSISEIKPPNLFPLAPQEITHCHDEDDDEEEEEEE
Take B1: the binding result is reported as “binds”.

The values above are taken from article doi:10.1101/2021.03.31.437821.
